From PMC8167039, “A Comparative Study of Human and Zebrafish Pregnane X Receptor Activities of Pesticides and Steroids Using In Vitro Reporter Gene Assays” (Frontiers in Endocrinology, 2021)

Protein sequences, listed by entry. Tags and fused reporters are not part of them.
UniProt A5WYG8, entry or part of it: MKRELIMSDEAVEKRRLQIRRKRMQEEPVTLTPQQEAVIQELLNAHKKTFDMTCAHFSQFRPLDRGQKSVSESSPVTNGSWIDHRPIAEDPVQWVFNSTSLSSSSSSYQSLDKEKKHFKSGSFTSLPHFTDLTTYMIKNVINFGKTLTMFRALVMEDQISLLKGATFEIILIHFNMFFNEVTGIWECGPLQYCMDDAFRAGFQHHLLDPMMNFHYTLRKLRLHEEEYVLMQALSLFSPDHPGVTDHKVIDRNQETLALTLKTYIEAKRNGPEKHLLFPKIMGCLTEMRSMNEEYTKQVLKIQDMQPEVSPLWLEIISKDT

Legend:
zfPXR [1] = biological target: T1, zfPXR (Danio rerio, UniProt A5WYG8); assay: HG5LN Gal4-zfPXR luciferase reporter gene assay, agonism; assay type: cell-based, zebrafish
Method: (§1) The cell lines used in this study are listed in Supplementary Table 3 . The HG5LN, HG5LN Gal4-hPXR and HG5LN Gal4-zfPXR cell lines were previously described ([19]). Briefly, HeLa cells stably transfected with the GAL4RE5-βGlobin-Luc-SVNeo plasmid (HG5LN cell line) ([15]). HG5LN cells were stably transfected with the pSG5-GAL4(DBD)-hPXR(LBD)-puro or pSG5-GAL4(DBD)-zfPXR(LBD)-puro plasmids.
(§2) HG5LN cells were cultured in Dulbecco’s Modified Eagle Medium: Nutrient Mixture F-12 (D-MEM/F-12) containing phenol red and 1 g/L glucose and supplemented with 5% fetal bovine serum, 100 units/mL of penicillin and 100 µg/mL of streptomycin supplemented with 1 mg/mL geneticin in a 5% CO2 humidified atmosphere at 37°C. HG5LN GAL4-hPXR and GAL4-zfPXR were cultured in the same culture medium supplemented with 0.5 µg/mL puromycin.
(§3) The ability of chemicals to modulate the hPXR and zfPXR was investigated in HG5LN, HG5LN-hPXR, HG5LN-zfPXR, and ZFL-zfPXR cell lines after exposure to serial dilutions of the compounds and measurement of luciferase activity. […] Briefly, cells were seeded in 96-well white opaque flat bottom microplates at 0.5 10^5 cells per well in culture medium. […] After 5 min, the production of light was assessed in living cells using microplate reader (MicroBeta, PerkinElmer SAS, Courtabœuf, France). […]

zfPXR [2] = biological target: T1, zfPXR; assay: cell-based
Method: The ability of chemicals to modulate the hPXR and zfPXR was investigated in HG5LN, HG5LN-hPXR, HG5LN-zfPXR, and ZFL-zfPXR cell lines after exposure to serial dilutions of the compounds and measurement of luciferase activity. […] Briefly, cells were seeded in 96-well white opaque flat bottom microplates at 0.5 10^5 cells per well in culture medium. […] Cells were then exposed to a concentration range of the compounds by using an automated workstation (Biomek 3000, Beckman Coulter). The final concentration of DMSO in the well never exceeds 0.1% (v/v). After 16h of exposure, medium was removed and 50 µL of test medium containing 0.3 mM D-luciferin were added per well. After 5 min, the production of light was assessed in living cells using microplate reader (MicroBeta, PerkinElmer SAS, Courtabœuf, France).
In the transactivation assay, each compound was tested at various concentrations in three independent experiments at least. For each experiment, tests were performed in quadruplicates for each concentration, and data are expressed by means values with standard deviations. […] This allowed to determine EC50 and IC50 values of tested chemicals.

zfPXR [3] = biological target: T1, zfPXR; assay: HG5LN Gal4-zfPXR luciferase reporter gene assay, antagonism (coexposure with clotrimazole); assay type: cell-based, zebrafish
Method: as §1, §2, §3

Clc1ccccc1C(c1ccccc1)(c1ccccc1)n1ccnc1 [Clotrimazole, reference compound]
EC50 (zfPXR [1]): 30 ± 2 nM | EC50 (zfPXR [2]): 20 ± 2 nM

Clc1ccc(COC(Cn2ccnc2)c2ccc(Cl)cc2Cl)cc1 (stereo not shown) [Econazole nitrate, reference compound]
IC50 (zfPXR [3]): 2800 ± 100 nM | IC50 (zfPXR [2]): 900 ± 50 nM
